This data set addresses La RRM1+2 WT, native (human) (UniProt P05455). The data set is described as follows: EMSA. The note with it: SUMO-GA reaction, no strong complex; L37/L22 EMSA: 1x binding buffer (from 2x: 3 mM MgCl2, 300 mM NaCl, 1 mM EDTA, 0.1% Nonidet P-40), i.e. 1.5 mM MgCl2, 150 mM NaCl, 0.5 mM EDTA, 0.05% NP-40; pH not stated; recombinant protein; residues 114-326; protein details: His6 (pET28b); label: 3'-Cy3. For orientation: In EMSA bound probe runs differently from free probe, usually more slowly.

By UniProt entry, the sequences of proteins in these tests, tags left out. Residues count along the entry.
UniProt P05455, 114-326: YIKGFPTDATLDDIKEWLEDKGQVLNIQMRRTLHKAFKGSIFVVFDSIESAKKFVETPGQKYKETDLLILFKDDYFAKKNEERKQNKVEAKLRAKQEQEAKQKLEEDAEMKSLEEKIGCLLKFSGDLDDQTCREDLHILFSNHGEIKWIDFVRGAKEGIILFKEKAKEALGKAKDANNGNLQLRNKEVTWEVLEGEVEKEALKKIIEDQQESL

Construct, isoform or probe ends are uncertain for at least one entry. Weaker means in comparison with the reference protein, sequence or condition of that experiment.

“UUCCGGUCUCUUUGGCCUCGCCGGUAGAAGCAAGAUG [L37 TOP RNA]”: the binding result is “binds more weakly”. The same measure for “CUCCUCUGCCGCCAUGGCUCCUGUGAAAAAGCUUGUG [L22 TOP RNA]”: “binds more weakly”.

Source of the values: article PMC4880191.
